Values of other authors as cited in paper PMC3383642 (Nature, 2012).

Conditions: human plasma, ref Thompson Reuters Integrity, cited from earlier work

CN(C)CCOC(c1ccccc1)c1ccccc1 [Diphenhydramine]
AUC [μM*h] (median) (median of reported values): 3.00 µM·h | AUC (range of reported values): 2.57 to 3.42 µM·h | Cmax (range of reported values): 260 nM
